# Data as given in the supplement of paper PMC8728848.
# The other results are listed elsewhere or left out.
# How the values were obtained:
# Experiment in all cases: glycan array binding signal (z-score within array); higher = stronger binding
# Settings in all cases: glycan notation: IUPAC condensed, linker removed
# [1] = target: Fuc(a1-2)Gal6S(b1-3)GlcNAc
# Procedure, shortened: (§1)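 Glycan array binding is given as a within-array Z-score, which can be read as non-binding when negative. The arrays, 3228 of them, came from the Consortium for Functional Glycomics database and were retained only where the protein sequence was available. Z-scores were averaged across arrays of the same protein sequence at different concentrations or buffers and across linkers.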
# [2] = target: Fuc(a1-2)Gal6S(b1-3)GlcNAc6S
# Procedure, shortened: as §1
# [3] = target: Fuc(a1-2)Gal6S(b1-4)Glc
# Procedure, shortened: as §1
# [4] = target: Fuc(a1-2)Gal6S(b1-4)Glc6S
# Procedure, shortened: as §1
# [5] = target: Fuc(a1-2)[Gal(a1-3)]Gal
# Procedure, shortened: as §1
# [6] = target: Fuc(a1-2)[Gal(a1-3)]Gal(b1-3)GalNAc
# Procedure, shortened: as §1
# [7] = target: Fuc(a1-2)[Gal(a1-3)]Gal(b1-3)GalNAc(b1-3)Gal(a1-4)Gal(b1-4)Glc
# Procedure, shortened: as §1
# [8] = target: Fuc(a1-2)[Gal(a1-3)]Gal(b1-3)GlcNAc
# Procedure, shortened: as §1
# [9] = target: Fuc(a1-2)[Gal(a1-3)]Gal(b1-3)GlcNAc(b1-2)Man(a1-3)[Fuc(a1-2)[Gal(a1-3)]Gal(b1-3)GlcNAc(b1-2)Man(a1-6)]Man(b1-4)GlcNAc(b1-4)GlcNAc
# Procedure, shortened: as §1
# [10] = target: Fuc(a1-2)[Gal(a1-3)]Gal(b1-3)GlcNAc(b1-2)Man(a1-3)[Fuc(a1-2)[Gal(a1-3)]Gal(b1-3)GlcNAc(b1-2)Man(a1-6)]Man(b1-4)GlcNAc(b1-4)[Fuc(a1-6)]GlcNAc
# Procedure, shortened: as §1
# [11] = target: Fuc(a1-2)[Gal(a1-3)]Gal(b1-3)GlcNAc(b1-3)GalNAc
# Procedure, shortened: as §1
# [12] = target: Fuc(a1-2)[Gal(a1-3)]Gal(b1-3)GlcNAc(b1-6)GalNAc
# Procedure, shortened: as §1
# [13] = target: Fuc(a1-2)[Gal(a1-3)]Gal(b1-4)Glc
# Procedure, shortened: as §1
# [14] = target: Fuc(a1-2)[Gal(a1-3)]Gal(b1-4)GlcNAc
# Procedure, shortened: as §1
# [15] = target: Fuc(a1-2)[Gal(a1-3)]Gal(b1-4)GlcNAc(b1-2)Man
# Procedure, shortened: as §1
# [16] = target: Fuc(a1-2)[Gal(a1-3)]Gal(b1-4)GlcNAc(b1-2)Man(a1-3)[Fuc(a1-2)[Gal(a1-3)]Gal(b1-4)GlcNAc(b1-2)Man(a1-6)]Man(b1-4)GlcNAc(b1-4)GlcNAc
# Procedure, shortened: as §1
# [17] = target: Fuc(a1-2)[Gal(a1-3)]Gal(b1-4)GlcNAc(b1-2)Man(a1-3)[Fuc(a1-2)[Gal(a1-3)]Gal(b1-4)GlcNAc(b1-2)Man(a1-6)]Man(b1-4)GlcNAc(b1-4)[Fuc(a1-6)]GlcNAc
# Procedure, shortened: as §1
# [18] = target: Fuc(a1-2)[Gal(a1-3)]Gal(b1-4)GlcNAc(b1-3)GalNAc
# Procedure, shortened: as §1
# [19] = target: Fuc(a1-2)[Gal(a1-3)]Gal(b1-4)GlcNAc(b1-3)[Fuc(a1-2)[Gal(a1-3)]Gal(b1-4)GlcNAc(b1-6)]GalNAc
# Procedure, shortened: as §1
# [20] = target: Fuc(a1-2)[Gal(a1-3)]Gal(b1-4)GlcNAc(b1-6)GalNAc
# Procedure, shortened: as §1
# [21] = target: Fuc(a1-2)[Gal(a1-3)]Gal(b1-4)[Fuc(a1-3)]Glc
# Procedure, shortened: as §1
# [22] = target: Fuc(a1-2)[Gal(a1-3)]Gal(b1-4)[Fuc(a1-3)]GlcNAc
# Procedure, shortened: as §1
# [23] = target: Fuc(a1-2)[Gal(a1-3)]Gal(b1-4)[Fuc(a1-3)]GlcNAc(b1-3)GalNAc
# Procedure, shortened: as §1
# [24] = target: Fuc(a1-2)[Gal(a1-4)]Gal(b1-4)GlcNAc
# Procedure, shortened: as §1
# [25] = target: Fuc(a1-2)[GalNAc(a1-3)]Gal
# Procedure, shortened: as §1
# [26] = target: Fuc(a1-2)[GalNAc(a1-3)]Gal(b1-3)GalNAc(a1-3)[Fuc(a1-2)]Gal(b1-4)GlcNAc
# Procedure, shortened: as §1
# [27] = target: Fuc(a1-2)[GalNAc(a1-3)]Gal(b1-3)GalNAc(b1-3)Gal(a1-4)Gal(b1-4)Glc
# Procedure, shortened: as §1
# [28] = target: Fuc(a1-2)[GalNAc(a1-3)]Gal(b1-3)GlcNAc
# Procedure, shortened: as §1
# [29] = target: Fuc(a1-2)[GalNAc(a1-3)]Gal(b1-3)GlcNAc(b1-2)Man(a1-3)[Fuc(a1-2)[GalNAc(a1-3)]Gal(b1-3)GlcNAc(b1-2)Man(a1-6)]Man(b1-4)GlcNAc(b1-4)GlcNAc
# Procedure, shortened: as §1
# [30] = target: Fuc(a1-2)[GalNAc(a1-3)]Gal(b1-3)GlcNAc(b1-2)Man(a1-3)[Fuc(a1-2)[GalNAc(a1-3)]Gal(b1-3)GlcNAc(b1-2)Man(a1-6)]Man(b1-4)GlcNAc(b1-4)[Fuc(a1-6)]GlcNAc
# Procedure, shortened: as §1
# [31] = target: Fuc(a1-2)[GalNAc(a1-3)]Gal(b1-3)GlcNAc(b1-3)GalNAc
# Procedure, shortened: as §1
# [32] = target: Fuc(a1-2)[GalNAc(a1-3)]Gal(b1-3)GlcNAc(b1-6)GalNAc
# Procedure, shortened: as §1
# [33] = target: Fuc(a1-2)[GalNAc(a1-3)]Gal(b1-4)Glc
# Procedure, shortened: as §1
# [34] = target: Fuc(a1-2)[GalNAc(a1-3)]Gal(b1-4)GlcNAc
# Procedure, shortened: as §1
# [35] = target: Fuc(a1-2)[GalNAc(a1-3)]Gal(b1-4)GlcNAc(b1-2)Man
# Procedure, shortened: as §1
# [36] = target: Fuc(a1-2)[GalNAc(a1-3)]Gal(b1-4)GlcNAc(b1-2)Man(a1-3)[Fuc(a1-2)[GalNAc(a1-3)]Gal(b1-4)GlcNAc(b1-2)Man(a1-6)]Man(b1-4)GlcNAc(b1-4)GlcNAc
# Procedure, shortened: as §1
# [37] = target: Fuc(a1-2)[GalNAc(a1-3)]Gal(b1-4)GlcNAc(b1-2)Man(a1-3)[Fuc(a1-2)[GalNAc(a1-3)]Gal(b1-4)GlcNAc(b1-2)Man(a1-6)]Man(b1-4)GlcNAc(b1-4)[Fuc(a1-6)]GlcNAc
# Procedure, shortened: as §1
# [38] = target: Fuc(a1-2)[GalNAc(a1-3)]Gal(b1-4)GlcNAc(b1-3)Gal(b1-4)GlcNAc
# Procedure, shortened: as §1
# [39] = target: Fuc(a1-2)[GalNAc(a1-3)]Gal(b1-4)GlcNAc(b1-3)Gal(b1-4)GlcNAc(b1-3)Gal(b1-4)GlcNAc
# Procedure, shortened: as §1
# [40] = target: Fuc(a1-2)[GalNAc(a1-3)]Gal(b1-4)GlcNAc(b1-3)GalNAc
# Procedure, shortened: as §1
# [41] = target: Fuc(a1-2)[GalNAc(a1-3)]Gal(b1-4)GlcNAc(b1-3)[Fuc(a1-2)[GalNAc(a1-3)]Gal(b1-4)GlcNAc(b1-6)]GalNAc
# Procedure, shortened: as §1
# [42] = target: Fuc(a1-2)[GalNAc(a1-3)]Gal(b1-4)GlcNAc(b1-6)GalNAc
# Procedure, shortened: as §1
# [43] = target: Fuc(a1-2)[GalNAc(a1-3)]Gal(b1-4)[Fuc(a1-3)]GlcNAc
# Procedure, shortened: as §1
# [44] = target: Fuc(a1-2)[GalNAc(a1-3)]Gal(b1-4)[Fuc(a1-3)]GlcNAc(b1-3)GalNAc
# Procedure, shortened: as §1
# [45] = target: Fuc(a1-2)[GalNAc(a1-4)]Gal(b1-4)GlcNAc
# Procedure, shortened: as §1
binder,measurement,setting,value
Epa19 (Candida glabrata) (protein) MGSSHHHHHHSSGLVPRGSHMASSKDPTRFPIGCSPQVLKTQPGLAVKLYSYGHPVPGCSYITYQYPDFPRSGYKKERKLADITGVNGKIDIDLKPNDPCRVLTGHLPSNYNYPDTLTYTNFTMILYGYFQPKVTGYHTFNLEADDLLFMNLGAGNAFDCCKAESTLDNFGNYQSYSLWGSDYAKANITVFLVSGVYYPIRLFYVNRDNNAVIDFSFTTEFDKEKVHDFTSYFFSASDGEQCPGSV,glycan array binding signal (z-score),[1],0.192
same,glycan array binding signal (z-score),[2],0.418
same,glycan array binding signal (z-score),[3],-0.51
same,glycan array binding signal (z-score),[4],-0.863
same,glycan array binding signal (z-score),[5],-0.947
same,glycan array binding signal (z-score),[6],-0.056
same,glycan array binding signal (z-score),[7],-0.326
same,glycan array binding signal (z-score),[8],-0.022
same,glycan array binding signal (z-score),[9],1.76
same,glycan array binding signal (z-score),[10],-0.248
same,glycan array binding signal (z-score),[11],-0.09
same,glycan array binding signal (z-score),[12],-0.282
same,glycan array binding signal (z-score),[13],-0.136
same,glycan array binding signal (z-score),[14],-0.677
same,glycan array binding signal (z-score),[15],0.045
same,glycan array binding signal (z-score),[16],-0.602
same,glycan array binding signal (z-score),[17],-0.419
same,glycan array binding signal (z-score),[18],-0.163
same,glycan array binding signal (z-score),[19],0.438
same,glycan array binding signal (z-score),[20],1.58
same,glycan array binding signal (z-score),[21],0.176
same,glycan array binding signal (z-score),[22],0.507
same,glycan array binding signal (z-score),[23],0.292
same,glycan array binding signal (z-score),[24],-0.041
same,glycan array binding signal (z-score),[25],-0.144
same,glycan array binding signal (z-score),[26],-0.629
same,glycan array binding signal (z-score),[27],0.131
same,glycan array binding signal (z-score),[28],0.377
same,glycan array binding signal (z-score),[29],-0.369
same,glycan array binding signal (z-score),[30],0.235
same,glycan array binding signal (z-score),[31],2.07
same,glycan array binding signal (z-score),[32],-0.483
same,glycan array binding signal (z-score),[33],-0.248
same,glycan array binding signal (z-score),[34],-0.384
same,glycan array binding signal (z-score),[35],-0.315
same,glycan array binding signal (z-score),[36],1.59
same,glycan array binding signal (z-score),[37],0.118
same,glycan array binding signal (z-score),[38],-0.361
same,glycan array binding signal (z-score),[39],0.872
same,glycan array binding signal (z-score),[40],-0.647
same,glycan array binding signal (z-score),[41],-0.445
same,glycan array binding signal (z-score),[42],0.209
same,glycan array binding signal (z-score),[43],-0.301
same,glycan array binding signal (z-score),[44],1.08
same,glycan array binding signal (z-score),[45],1.04

# 4 entries from above, tab-delimited.
binder	measurement	setting	value
Epa19 (Candida glabrata) (protein) MGSSHHHHHHSSGLVPRGSHMASSKDPTRFPIGCSPQVLKTQPGLAVKLYSYGHPVPGCSYITYQYPDFPRSGYKKERKLADITGVNGKIDIDLKPNDPCRVLTGHLPSNYNYPDTLTYTNFTMILYGYFQPKVTGYHTFNLEADDLLFMNLGAGNAFDCCKAESTLDNFGNYQSYSLWGSDYAKANITVFLVSGVYYPIRLFYVNRDNNAVIDFSFTTEFDKEKVHDFTSYFFSASDGEQCPGSV	glycan array binding signal (z-score)	[36]	1.59
same	glycan array binding signal (z-score)	[37]	0.118
same	glycan array binding signal (z-score)	[38]	-0.361
same	glycan array binding signal (z-score)	[39]	0.872
